Screen size: about 320,000 compounds; about 22,000 (6.9%) were called active. Inconclusive means that the source gave no clear call. Such entries were picked first, then a sample of the others. Calls follow the shape of the dose curve; as a rule, active = well fitted inhibition curve with a large enough effect; inconclusive = small, poorly fitted or top-dose-only effect, or another doubt; inactive = no such curve, though single readings can be large or run the other way. A potency beside an inconclusive call is a rough fit, not a confirmed value.
Test: Primary qHTS for delayed death inhibitors of the malarial parasite plastid, 96 hour incubation
Conditions: P. falciparum luciferase reporter growth; series mostly up to 28.7 µM
Summary of the method: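 P. falciparum expressing integrated firefly luciferase, in erythrocytes at 2% hematocrit, 0.05% parasitemia, incubated with compounds 96 h at 37 C, 5% CO2. Growth inhibition read as loss of luminescence; two-generation exposure targets delayed-death apicoplast inhibitors.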
% is scaled to controls: 0 for no effect and ±100 for the full control effect; potency is read from the fitted curve at half-maximal effect.

Row | Structure (SMILES) | Potency | activity change, negative = inhibition
1 | CSc1ccc(CN(C)C(=O)c2cccc(S(=O)(=O)N3CCN(Cc4ccccc4)CC3)c2)cc1 | inconclusive: 5.22 µM [inhibitor, partial curve, poor fit] | 
2 | Cc1ccc(S(=O)(=O)N2CCN(c3ccnc4cc(Cl)ccc34)CC2)cc1 | inconclusive: 0.928 µM [inhibitor, full curve] | 
3 | CC1=CCC2C(=O)N(CCc3c[nH]c4ccccc34)C(=O)C2C1 (stereo not drawn) | inconclusive: 14.7 µM [inhibitor, single point] | 
4 | COc1ccc(N=C2SCCCN2C)cc1 | inconclusive: 11.7 µM [inhibitor, single point] | 
5 | NC(=O)CSc1nc(-c2ccccc2)nc2ccccc12 | inconclusive: 11.7 µM [inhibitor, partial curve] | 
6 | CC(Oc1ccccc1)C(=O)N1CCN=C1SCc1ccc(F)cc1 (stereo not drawn) | inactive | 
7 | CC(C)CC(=O)Nc1nnn(C)n1 | inconclusive: 14.7 µM [inhibitor, partial curve] | 
8 | O=C(O)c1cc(S(=O)(=O)Nc2ccc3c(c2)OCCO3)c(Cl)cc1Cl | inconclusive: 1.04 µM [inhibitor, partial curve, poor fit] | 
9 | O=C(CN1CCN(Cc2ccccc2)CC1)N/N=C/C=C/c1ccco1 | inconclusive: 0.037 µM [inhibitor, full curve, poor fit] | 
10 | CCOC(=O)/C(=C/c1ccc(OC)cc1)NC(=O)c1ccco1 | inconclusive: 5.22 µM [inhibitor, partial curve] | 
11 | NC(=O)COc1ccc2oc(-c3ccccc3)cc(=O)c2c1 |  | inactive: 27% [at 5.75 µM]
12 | CCN1CCN(c2nc3c(C)cccn3c(=O)c2/C=C(\C#N)C(=O)NCCOC)CC1 | inactive | 
13 | O=C(Cn1nnc(-c2ccccc2)n1)Nc1cccc(S(=O)(=O)N2CCCC2)c1 | inconclusive: 13.1 µM [inhibitor, single point] | 
14 | COc1cccc(C(=O)O/N=C(\N)Cc2ccc(Cl)cc2)c1 | inactive | 
15 | CSc1ccccc1OCc1cc(C(=O)N2CCC[C@H]2C(N)=O)no1 | inconclusive: 18.5 µM [inhibitor, single point] | 
16 | CN(C)NC1=CC(=[N+]2CCCC2)CC(C)(C)C1 | inconclusive: 4.15 µM [inhibitor, partial curve, poor fit] | 
17 | COc1ccc(C)cc1NS(=O)(=O)c1ccc2c(c1)N(C)CCO2 | inactive | 
18 | Cc1ccc(-n2c(O)c(C=NC3CCS(=O)(=O)C3)c3ccccc3c2=O)cc1 (stereo not drawn) | inconclusive: 10.4 µM [inhibitor, single point] | 
19 | CC1CCC(NC(=O)CCC(=O)N2CC(C)Oc3ccccc32)CC1 (stereo not drawn) | inconclusive: 0.0074 µM [inhibitor, full curve, poor fit] | 
20 | COc1ccc(N2CCC(CNC(=S)Nc3cccc(OC)c3)C2)cc1 (stereo not drawn) | inactive | 
21 | CN(C(=O)/C=C/c1ccc([N+](=O)[O-])s1)c1ccccc1 | inconclusive: 11.7 µM [inhibitor, partial curve] | 
22 | COc1ccccc1C1C(C(C)=O)=C(O)C(=O)N1CCc1ccccc1 (stereo not drawn) | inconclusive: 11.7 µM [inhibitor, partial curve, poor fit] | 

Exported tab-delimited: part of the list above
Row	Structure (SMILES)	Potency	activity change, negative = inhibition
3	CC1=CCC2C(=O)N(CCc3c[nH]c4ccccc34)C(=O)C2C1 (stereo not drawn)	inconclusive: 14.7 µM [inhibitor, single point]	
4	COc1ccc(N=C2SCCCN2C)cc1	inconclusive: 11.7 µM [inhibitor, single point]	

Next part

Row | Structure (SMILES) | Potency | activity change, negative = inhibition
23 | COc1cc2ccccc2cc1C(=O)Nc1ccc(N2CCOCC2)cc1 | inactive | 
24 | O=C(Nc1ccncc1)C1CCCN(S(=O)(=O)c2cccc3cccnc23)C1 (stereo not drawn) | active: 5.86 µM | 
25 | CCOC(=O)N1CCN(c2c(NC3CCN(Cc4ccccc4)CC3)c(=O)c2=O)CC1 | inconclusive: 18.5 µM [inhibitor, single point] | 
26 | Cc1nn(-c2ccc3ccccc3c2)c(=O)c2ccccc12 | inactive | 
27 | COCCNc1nc(N)c([N+](=O)[O-])c(Nc2ccc(F)cc2)n1 | inconclusive: 1.17 µM [inhibitor, partial curve, poor fit] | 
28 | O=C(O)C1Nc2c(Cl)cc(Cl)cc2C2C=CCC12 (stereo not drawn) | inconclusive: 18.5 µM [inhibitor, single point] | 
29 | CC(C)CC(=O)Nc1ccc2c(c1)OCO2 | inactive | 
30 | O=[N+]([O-])c1ccccc1/C=C/c1ccc2ccccc2n1 | inconclusive: 16.5 µM [inhibitor, single point] | 
31 | c1ccc(CCc2ccccc2-c2nc(-c3cccnc3)no2)cc1 | inconclusive: 18.5 µM [inhibitor, single point] | 
32 | Cc1cccc(Cn2ccc(N)n2)c1 | inconclusive: 2.62 µM [inhibitor, partial curve, poor fit] | 
33 | COc1cccc(-c2cc(C(=O)N/N=C/c3ccc(OC)c(COC(C)=O)c3)c3ccccc3n2)c1 | inconclusive: 18.5 µM [inhibitor, single point] | 
34 | O=C(O)c1ccc(COc2ccccc2/C=C2\NC(=O)N(Cc3ccccc3F)C2=O)cc1 | inconclusive: 0.262 µM [inhibitor, partial curve, poor fit] | 
35 | COc1cc(NC(=S)NCc2ccc(S(N)(=O)=O)cc2)c(OC)cc1Cl | inconclusive: 13.1 µM [inhibitor, single point] | 
36 | CC(Oc1cc2oc(=O)c3c(c2cc1Cl)CCC3)C(=O)NC1CC(C)(C)NC(C)(C)C1 (stereo not drawn) | inconclusive: 9.28 µM [inhibitor, single point] | 
37 | O=C(Nc1cccc2c1CCCC2)c1ccncc1 | inconclusive: 10.4 µM [inhibitor, single point] | 
38 | CCOC(=O)CNc1nc(Cl)nc(Nc2ccc(Cl)cc2)n1 | inactive | 
39 | COCCn1c(=NC(=O)CSCC(=O)N2CCOCC2)sc2ccccc21 | inactive | 
40 | Cc1nn(C)cc1C(C)NC(=O)c1cc(COc2cccc3cnccc23)on1 (stereo not drawn) | inconclusive: 18.5 µM [inhibitor, single point] | 
41 | COC(=O)c1cc(NC(=O)CN(c2ccccc2OC)S(=O)(=O)c2ccccc2)ccc1Cl | inactive | 
42 | COc1cccc(NC(=O)C2CCN(S(=O)(=O)c3ccc4c(c3)C(C)(C)C(=O)N4C)CC2)c1 | inconclusive: 10.4 µM [inhibitor, single point] | 
43 | Cc1ccc(S(=O)(=O)N2CCC(C(=O)NN3CCCCC3)CC2)cc1 | inconclusive: 0.928 µM [inhibitor, full curve, poor fit] | 
